At least one structure is not confirmed: it was looked up by name or label, or the drawing left a doubt.
Assays:
Type in all cases: cell-based, human
HUVEC tube formation [1] = test: Endothelial tube assay of Example 7 (average tube length, 3-D type I collagen gels); settings: 3-D collagen gels
Experimental: Collagen gels were formed by mixing together ice-cold gelation solution (IOX M199, H2O, 0.53M NaHCO3, 200 mM L-glutamine, type I collagen, 0.1M NaOH, 100:27.2:50:10:750:62.5 by volume) and cells in 1× basal medium (see below) at a concentration of 3×10^6 cells/ml at a ratio of 4 volumes gelation solution: 1 volume of cells (18). After gelation at 37° C. for 30 min, the gels were overlaid with 1× basal medium consisting of M199 supplemented with […], 1× ITS, 2 mM L-glutamine, […] ascorbic acid, 26.5 mM NaHCO3, 100 U/ml penicillin and 100 U/ml streptomycin supplemented with 40 ng/ml bFGF, 40 ng/ml VEGF, 80 nM PMA or the combination of PMA (80 nM), bFGF and VEGF (40 ng/ml each). All drugs were added to the 1× basal medium immediately after gelation. To quantify tube formation, the average tube length was determined by measuring total tube length (long axis) in three consecutive layers of a low power (10×) field using Openlab software (Improvision Inc, England). Each layer was separated by 100 μm.

MMP-9 mRNA = test: Real time RT-PCR (Taqman) assay in HUVEC, Example 7; settings: 24 h
Experimental: (§1) Total RNA was extracted from HUVEC cultured in 3-D type I collagen gels for various times in 1× basal medium supplemented with 40 ng/ml bFGF, 40 ng/ml VEGF, […] PMA or the combination of PMA (80 nM), bFGF and VEGF (40 ng/mil each). […] For all mRNAs evaluated a sample of total RNA (100 ng) was added to a 50 μl RT-PCR reaction mixture according to the manufacturer's protocol (Roche Molecular Systems, Inc., Branchburg, N.J.). The thermal cycling conditions included 1 cycle at 48° C. for 30 min, 1 cycle at 95° C. for 10 min, 40 cycles at 95° C. for 15 s, at 60° C. for 1 min, and finally hold at 25° C. for 2 min. Standard curves for expression of each gene were generated by serial dilution of the total RNA isolated from U937 cells. […] Therefore, the relative mRNA expression of each gene was normalized to the level of GAPDH in the same RNA preparation.

MMP-2 mRNA = test: as above; settings: 24 h
Experimental: as §1

MMP-2 secretion = test: Zymographic assay of HUVEC conditioned media; settings: 100 μM; 24 h
Experimental: (§2) The presence of gelatinases MMP-2 and -9 in conditioned media from cultured HUVEC in 3-D type I collagen gels was analyzed by zymography. Media from different treatments or from different time points were concentrated and then 10 μl aliquots were mixed with 2 × sample buffer without reducing agent or heating. Samples were loaded on a 10% polyacrilamide gel containing 0.1% gelatin (Novex, San Diego, Calif.) for electrophoresis. In addition to using regular molecular weight markers the MMP-2 and -9 zymographic standards (Chemicon, Temecula, Calif.) were used as standards for gelatinases. The gels were incubated for 30 min at room temperature in renaturing buffer and in developing buffer for overnight at 37° C., and then stained with 0.25% Coomassie brilliant blue (Sigma). Gelatinase activity was identified as lightly stained or clear bands following destaining.

MMP-9 secretion = test: Zymographic assay of HUVEC conditioned media; settings: 100 μM; 24 h
Experimental: as §2

HUVEC tube formation [2] = test: Endothelial tube assay (number of tubes, three-dimensional collagen gels)
Experimental: In this model, endothelial cells are suspended in a three-dimensional collagen lattice of type I collagen and undergo rapid morphogenesis. Within 4 hr numerous vacuoles are observed in the majority of endothelial cells; at 24 hr the formation of tube-like structures can be observed and at 48 hr an interconnected network of tube-like structures is observed.
Collagen gels were formed by mixing together ice-cold gelatin solution (10× M199, H2O, 0.53M NaHCO3, 200 mM L-glutamine, type I collagen, 0.1M NaOH, 100:27.2:50:10:750:62.5 by volume) and cells in 1× basal medium at a concentration of 3×10^6 cells/ml at a ratio of 4 volumes gelatin solution: 1 volume of cells. After gelation at 37 for 30 min, the gels were overlaid with IX basal medium consisting of M199 supplemented with 1%FBS, 1× ITS, 2 mM L-glutamine, 50 μg/ml ascorbic acid, 26.5 mM NaHCO3, 100 U/ml penicillin and 100 U/mil streptomycin supplemented with 40 ng/ml BFGF, 40 ng/ml VEGF and 80 nM phorbol myristate acetate (PMA). All drugs were added to the IX basal medium immediately after gelation. To quantitate tube formation, the number of tubes per high power (20× field) was determined 48 hr after addition of the basal medium Five independent fields separated by 100 μm optical sections were assessed for each well. Cytotoxicity was assessed using an XTT kit from Boehringer Mannheim (Indianapolis, Ind.).

[3] = 10 μM, PMA or PMA with bFGF and VEGF

Question: `CC1(COc2ccc(CC3SC(=O)NC3=O)cc2)CCCCC1` (stereo not shown) [ciglitizone] was tested. Which “PMA or PMA in combination with bFGF and VEGF induced HUVEC tube formation” value (HUVEC tube formation [1]; 10 μM, 24 h) did it give?
Answer: blocked

Question: What about the “MMP-9 mRNA levels” value (MMP-9 mRNA; [3]) of the same compound?
Answer: significant suppression

Question: And the “MMP-2 mRNA levels” value (MMP-2 mRNA; [3])?
Answer: significant suppression

Question: Which results are given for `CCOC(=O)C(C)(C)Oc1ccc(Cl)cc1` [clofibrate]?
Answer: HUVEC tube formation (HUVEC tube formation [1]; 100 μM): do not inhibit; MMP-9 mRNA expression (MMP-9 mRNA; 100 μM): did not alter; MMP-2 mRNA expression (MMP-2 mRNA; 100 μM): did not alter; MMP-2 protein secretion (MMP-2 secretion): did not alter; MMP-9 protein secretion (MMP-9 secretion): did not alter; inhibition of tube formation (FIG. 3B) (HUVEC tube formation [2]; at 100 μM): do not inhibit; inhibition of tube formation (HUVEC tube formation [2]; at concentrations of up to 100 μM): did not significantly inhibit
